{"source": "PubChem BioAssay AID1259254 (NCATS, 2017)", "screen": "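Gene knock-downs that lead to re-replication, shown by excess G2 DNA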 (primary screen)", "cells": "human HCT116 colorectal cancer cells", "reagent": "single siRNA against human genes", "time to read-out": "3 days", "read-out": "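Nuclei stained with Hoechst and imaged; cell-cycle phase assigned by DNA content; G2 share scaled per plate, non-targeting siRNA 0%, GMNN siRNA 100%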", "scale": "G2 robust z-score: higher = more G2 cells, more excess DNA replication", "active means": "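An siRNA counts as active if its G2 robust z-score lies at least 5 MADs above the screen median; here such calls match roughly 38% of GMNN control or more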", "note": "The whole screen tested about 59,000 reagents; shown is an unselected part. Over the whole deposit, about 1,550 (2.6%) got an active call. 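G2 share is only a proxy for re-replication; each gene was hit by three separate siRNAs, and active genes were retested.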 Entries without a mark were called inactive. The numbers tell different reagents against one gene apart. Not all columns of the deposit are shown. The record does not give: the amount of reagent."}
{"gene":"CCL20","reagent no.":1,"G2 robust z-score":0.222}
{"gene":"CCL20","reagent no.":2,"G2 robust z-score":-0.0469}
{"gene":"CCL20","reagent no.":3,"G2 robust z-score":1.97}
{"gene":"RETNLB","reagent no.":1,"G2 robust z-score":-0.279}
{"gene":"RETNLB","reagent no.":2,"G2 robust z-score":1.03}
{"gene":"RETNLB","reagent no.":3,"G2 robust z-score":-0.0328}
{"gene":"ITGA3","reagent no.":1,"G2 robust z-score":0.977}
{"gene":"ITGA3","reagent no.":2,"G2 robust z-score":-0.421}
{"gene":"ITGA3","reagent no.":3,"G2 robust z-score":-0.193}
{"gene":"TAF1L","reagent no.":1,"G2 robust z-score":-1.95}
{"gene":"TAF1L","reagent no.":2,"G2 robust z-score":-1.36}
{"gene":"TAF1L","reagent no.":3,"G2 robust z-score":-0.799}
{"gene":"PRDX5","reagent no.":1,"G2 robust z-score":0.987}
{"gene":"PRDX5","reagent no.":2,"G2 robust z-score":-0.912}
{"gene":"PRDX5","reagent no.":3,"G2 robust z-score":1.99}

Records listed so far whose target name starts with P or p:
{"gene":"PRDX5","reagent no.":1,"G2 robust z-score":0.987}
{"gene":"PRDX5","reagent no.":2,"G2 robust z-score":-0.912}
{"gene":"PRDX5","reagent no.":3,"G2 robust z-score":1.99}

The listing continues:
{"gene":"CLRN2","reagent no.":1,"G2 robust z-score":0.139}
{"gene":"CLRN2","reagent no.":2,"G2 robust z-score":-0.94}
{"gene":"CLRN2","reagent no.":3,"G2 robust z-score":-0.394}
{"gene":"LINC01587","reagent no.":1,"G2 robust z-score":1.07}
{"gene":"LINC01587","reagent no.":2,"G2 robust z-score":-0.454}
{"gene":"LINC01587","reagent no.":3,"G2 robust z-score":-1.15}
{"gene":"A2M","reagent no.":1,"G2 robust z-score":-0.815}
{"gene":"A2M","reagent no.":2,"G2 robust z-score":-0.514}
{"gene":"A2M","reagent no.":3,"G2 robust z-score":1.53}
